Results from PubChem BioAssay AID493014 (National Center for Advancing Translational Sciences (NCATS), 2011).
Some of the results follow. Further columns of the screen follow, without active or inactive calls. Most of these compounds were active or inconclusive in the main read-out, so they are no random draw. Words in brackets tell the shape of the fitted curve; partial curves, single points and poor fits give uncertain potencies.

Assay: qHTS Assay to Find Inhibitors of Chronic Active B-Cell Receptor Signaling
Settings: ABC-DLBCL IkBa-CBG/CBR reporter, luminescence ratio (green luciferase fused to IkBa over red control in TMD8 lymphoma cells), 4 h
Method in brief: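 Compounds up to 46 uM were incubated four hours with TMD8 cells whose green CBG68 luciferase is fused to IkappaBalpha; red CBR luminescence normalised the signal, and concentration-effect curves were fitted to fusion, red and ratio data.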

[1] = measured here: CBR red luminescence, cell number
[2] = measured here: IkBa-CBG green luminescence

Question: Which AC50 [1] does the source give for `O=C(CSc1nnc(-c2n[nH]c3ccccc23)n1-c1ccccc1)Nc1cccc(Cl)c1` here?
Answer: 29.1 µM [falling, single point]

Question: Which AC50 [1] does the source give for `c1ccc(OCCSc2nnc3sc4ccccc4n23)cc1` here?
Answer: 7.94 µM [falling, partial curve, poor fit]

Question: For `COc1ccc(C(=O)N/N=C/c2ccc(SC)cc2)cc1`, which AC50 [1] is on record?
Answer: 4.61 µM [falling, partial curve, poor fit]

Question: Which AC50 [1] does the source give for `COC(=O)c1ccc(CNC(=O)CN(CCC(C)C)S(=O)(=O)c2ccc3c(c2)OCCO3)cc1` here?
Answer: 20.6 µM [rising, single point]

Question: Which AC50 [1] does the source give for `CCc1c(C)sc(NC(=O)c2cc(CC(C)C)on2)c1C#N` here?
Answer: 6.51 µM [rising, single point]

Question: For `Cc1ccc(C(=O)Oc2ccc(C(=O)COC(=O)c3cnccn3)cc2)cc1`, which AC50 [1] is on record?
Answer: 0.13 µM [rising, full curve, poor fit]

Question: With `CC(C)(C)OC(=O)NCCCC[C@H](NC(=O)c1[nH]cnc1C(=O)Nc1ccc(CNC(=O)OC(C)(C)C)cc1)C(=O)OC(C)(C)C` as the molecule, how does the AC50 [1] read?
Answer: 1 µM [rising, full curve, poor fit]

Question: For `CCOC(=O)/C=C1\SCC(=O)N1CC(=O)NC12CC3CC(CC(C3)C1)C2`, which AC50 [1] is on record?
Answer: 6.51 µM [falling, single point]

Question: With `Cc1ccc2c(c1)N(CCC(=O)NC1CCCCC1C)C(=O)CO2` (centres undefined) as the molecule, how does the AC50 [1] read?
Answer: 3.16 µM [rising, single point]

Question: Which AC50 [1] does the source give for `Brc1ccc(CSc2ncnc3nc[nH]c23)cc1` here?
Answer: 0.731 µM [rising, partial curve, poor fit]

Question: Which AC50 [1] does the source give for `CC1CN(C(=S)Nc2cccc(Cl)c2)CC(C)O1` (centres undefined) here?
Answer: 12.6 µM [rising, single point]

Question: Which AC50 [1] does the source give for `Cc1ccc(NC(=O)CCc2c(C)nc3ncnn3c2C)cc1` here?
Answer: 3.16 µM [falling, partial curve]

Question: With `Cc1cc(NC(=O)CSc2nnc(CNc3ccc(F)cc3)n2C2CCCCC2)no1` as the molecule, how does the AC50 [1] read?
Answer: 20 µM [rising, partial curve, poor fit]

Question: For `CCOC(=O)C1=C(Cc2ccc(F)cc2)C(=O)c2ccccc2C1=O`, which AC50 [1] is on record?
Answer: 1.3 µM [falling, full curve]

Question: Which AC50 [1] does the source give for `COc1ccc(-c2cc(C(F)(F)F)n3nc(C(=O)N4CCCCC4)cc3n2)cc1` here?
Answer: 1.41 µM [rising, full curve, poor fit]

Question: Which AC50 [1] does the source give for `COC(=O)c1c(C)[nH]c(C(=O)NCc2ccco2)c1C` here?
Answer: 35.5 µM [falling, partial curve, poor fit]

Question: With `COc1ccc(NC(=O)C2CCCO2)cc1Cl` (centres undefined) as the molecule, how does the AC50 [1] read?
Answer: 0.13 µM [rising, full curve, poor fit]

Question: With `COc1ccc(/C=C(\C#N)C(=O)NCC(c2ccc(F)cc2)N2CCOCC2)cc1` (centres undefined) as the molecule, how does the AC50 [1] read?
Answer: 35.5 µM [falling, single point]

Question: For `CC(C)CC(=O)N/N=C/c1c(N)n(C)c(=O)n(C)c1=O`, which AC50 [1] is on record?
Answer: 15.8 µM [falling, partial curve, poor fit]

Question: Which AC50 [1] does the source give for `Cc1ccc2nc(Cl)c(/C=N/Nc3ccc(C(=O)O)cc3)cc2c1` here?
Answer: 0.112 µM [falling, full curve]

Question: With `COc1ccc(-c2c(C#CC(C)(C)O)c3ccccc3n2C)cc1` as the molecule, how does the AC50 [1] read?
Answer: 0.00461 µM [falling, full curve, poor fit]

Question: For `CCOC(=O)Cc1csc(NC(=O)NC2(C(F)(F)F)Oc3ccc(Cl)cc3O2)n1` (centres undefined), which AC50 [1] is on record?
Answer: 1.3 µM [rising, partial curve, poor fit]

Question: For `O=C1CSC(c2cccnc2)N1c1ccc(F)cc1` (centres undefined), which AC50 [1] is on record?
Answer: 1.64 µM [falling, full curve, poor fit]

Question: Which AC50 [1] does the source give for `O=C(c1cc2ccc3cccnc3c2[nH]1)N1CCN(c2cccc(Cl)c2)CC1` here?
Answer: 1.78 µM [rising, full curve, poor fit]

Question: Which AC50 [2] does the source give for `Cc1cc(C)c2c(NC(=S)NC(=O)c3ccccc3)nn(C)c2n1` here?
Answer: 20 µM [falling, single point]

Question: For `O=C(CSc1ccc(Cl)cc1)N1CCN(c2c(Cl)cccc2[N+](=O)[O-])CC1`, which AC50 [1] is on record?
Answer: 12.6 µM [falling, partial curve, poor fit]

Question: Which AC50 [1] does the source give for `O=C(NC1CCCCC1)C(c1ccco1)N(C(=O)c1csnn1)c1ccc(Cl)cc1` (centres undefined) here?
Answer: 35.5 µM [falling, single point]

Question: For `COc1ccc(N/C=C\C(=O)c2ccc3ccccc3c2)cc1`, which AC50 [1] is on record?
Answer: 0.316 µM [falling, full curve, poor fit]

Question: Which AC50 [1] does the source give for `CCOc1ccc(Br)cc1S(=O)(=O)Nc1ccc(C(=O)OCC(=O)Nc2ccc(C#N)cc2)cc1` here?
Answer: 35.5 µM [falling, single point]

Question: With `COc1ccc(/C=N/NC(=O)c2cc(C)oc2C)cc1OC` as the molecule, how does the AC50 [1] read?
Answer: 8.91 µM [falling, partial curve]

Question: Which AC50 [1] does the source give for `Cc1ccc(-c2n[nH]c(=O)c3ccccc23)cc1S(=O)(=O)NCCO` here?
Answer: 4.61 µM [falling, single point]

Question: Which AC50 [1] does the source give for `Cc1ccc(C)c(NC(=O)Cc2coc3cc4c(cc23)CCC4)c1` here?
Answer: 2.31 µM [rising, partial curve, poor fit]

Question: Which AC50 [1] does the source give for `COc1ccc(N2CCN(C(=O)c3oc4ccccc4c3C)CC2)cc1` here?
Answer: 0.891 µM [rising, full curve, poor fit]

Question: Which AC50 [2] does the source give for `Cc1[nH]c2ccccc2c1/C=N/NC(=O)C1CC1(c1ccccc1)c1ccccc1` (centres undefined) here?
Answer: 29.1 µM [rising, partial curve, poor fit]

Question: For `O=C(Nc1ccc(Oc2ccc(Br)cc2)cc1)C1=CC=CN2CCS(=O)(=O)N=C12`, which AC50 [1] is on record?
Answer: 10.3 µM [rising, partial curve, poor fit]

Question: For `CCOC(=O)CCCCCC(=O)Nc1ccc2c(c1)C(=O)N([C@H](C)CO)C[C@H](C)[C@@H](CN(C)C(=O)Nc1ccc(OC)cc1)O2`, which AC50 [1] is on record?
Answer: 14.6 µM [rising, single point]

Question: With `CCCN1C(=O)/C(=C2/C=Cc3ccccc3N2CC)SC1=S` as the molecule, how does the AC50 [1] read?
Answer: 17.8 µM [rising, partial curve, poor fit]

Question: With `CCN(c1ccccc1)S(=O)(=O)c1ccc(C(=O)NNC(=O)c2ccccc2F)cc1` as the molecule, how does the AC50 [1] read?
Answer: 29.1 µM [rising, single point]

Question: And the AC50 [2]?
Answer: 25.9 µM [falling, partial curve, poor fit]

Question: For `CC1(C)CC(=O)c2sc(NC(=O)C3CC3)nc2C1`, which AC50 [1] is on record?
Answer: 25.9 µM [falling, single point]

Question: For `O=C(/C=C/c1ccc(Cl)cc1Cl)Nc1cccc(S(=O)(=O)NC2=NCCCCC2)c1`, which AC50 [1] is on record?
Answer: 20.6 µM [falling, single point]

Question: Which AC50 [1] does the source give for `CC(C)Cc1cc(C(=O)Nc2ccc(F)cc2F)no1` here?
Answer: 9.2 µM [falling, partial curve]

Question: For `c1cc(-n2cnnn2)ccc1NC1=NCCC1`, which AC50 [1] is on record?
Answer: 2.59 µM [falling, partial curve, poor fit]

Question: For `CCOC(=O)C(=Cc1cc(=O)c(OC)co1)C(=O)OCC`, which AC50 [1] is on record?
Answer: 11.6 µM [falling, partial curve]

Question: For `CN(C(=S)NC(=O)CCCOc1ccc(Cl)cc1Cl)c1ccccc1`, which AC50 [1] is on record?
Answer: 18.4 µM [rising, single point]

Question: For `CC(C)(C)C(=O)Nc1cc(S(=O)(=O)Nc2ccc(Cl)cc2)ccc1Cl`, which AC50 [1] is on record?
Answer: 13 µM [falling, partial curve, poor fit]

Question: With `CC(=O)c1cccc(NC(=O)C=C(C)C)c1` as the molecule, how does the AC50 [1] read?
Answer: 16.4 µM [rising, partial curve, poor fit]

Question: Which AC50 [1] does the source give for `COc1cccc(C(=O)CC(C#N)c2ccc(F)cc2)c1` (centres undefined) here?
Answer: 0.891 µM [rising, full curve]

Question: Which AC50 [2] does the source give for `CCOc1c(Br)cc(/C=C2\C(=O)N(CCC#N)N=C2C)cc1OC` here?
Answer: 18.4 µM [falling, single point]

Question: Which AC50 [1] does the source give for `CCOC(=O)N1CCN(c2ccc([N+](=O)[O-])cc2)CC1` here?
Answer: 20.6 µM [rising, partial curve, poor fit]

Question: For `CC(C)Oc1cccc(C(=O)NC(=S)Nc2cccc(NC(=O)c3ccccc3Cl)c2)c1`, which AC50 [1] is on record?
Answer: 2.59 µM [falling, partial curve, poor fit]

Question: With `O=C(Nc1nccs1)c1ccc(N2CCOCC2)c([N+](=O)[O-])c1` as the molecule, how does the AC50 [1] read?
Answer: 10 µM [falling, partial curve]

Question: For `CCCOc1ccc2[nH]c(C(=O)N/N=C/c3cc(OC)c(OC)c(OC)c3)cc2c1`, which AC50 [1] is on record?
Answer: 22.4 µM [falling, partial curve, poor fit]

Question: With `COC(=O)C1=C(C)N(c2cc(C)cc(C)c2)/C(=C/c2ccc(O)cc2)C1=O` as the molecule, how does the AC50 [1] read?
Answer: 4.47 µM [falling, full curve, poor fit]

Question: For `O=C(CSc1nnc(-c2ccccc2O)o1)Oc1ccc(OCc2ccccc2)cc1`, which AC50 [1] is on record?
Answer: 3.98 µM [rising, full curve, poor fit]

Question: For `O=C(CCCN1C(=O)c2ccccc2C1=O)Oc1ccc(F)cc1`, which AC50 [2] is on record?
Answer: 0.461 µM [rising, partial curve, poor fit]

Question: For `Clc1ccc(CSc2nnc3c(n2)[nH]c2ccccc23)cc1`, which AC50 [1] is on record?
Answer: 1 µM [rising, full curve, poor fit]

Question: Which AC50 [1] does the source give for `N#Cc1cccc(NC(=O)COc2ccc(-n3ccnc3)cc2)c1` here?
Answer: 25.1 µM [falling, partial curve, poor fit]

Question: With `O=C(c1ccccc1Nc1ccc(SC(F)F)cc1)N1CCCCCC1` as the molecule, how does the AC50 [1] read?
Answer: 5.62 µM [falling, single point]

Question: Which AC50 [1] does the source give for `CC(=O)CC(C)(C)S(=O)(=O)c1ccc(Oc2ccc(S(=O)(=O)C(C)(C)CC(C)=O)cc2)cc1` here?
Answer: 32.6 µM [rising, single point]

Question: With `O=C(COc1coc(CN2CCc3ccccc3C2)cc1=O)Nc1cccc(Cl)c1` as the molecule, how does the AC50 [1] read?
Answer: 29.1 µM [rising, single point]

Question: With `CCOC(=O)c1ccc2nc(NC(=O)c3cccs3)sc2c1` as the molecule, how does the AC50 [1] read?
Answer: 0.82 µM [falling, full curve]

Question: With `CCOC(=O)C1=CC[C@@H](c2cc3ccc(OC)cc3n2C)N(S(=O)(=O)c2ccc(C)cc2)[C@H]1C(=O)OCC` as the molecule, how does the AC50 [1] read?
Answer: 16.4 µM [rising, partial curve, poor fit]
